{"source": "paper PMC12040169", "about": "(PLOS Biology, 2025)", "note": "Some of the results follow."}
{"system": "T1, CTL2-GFP (C. trachomatis L2/434/Bu, GFP-expressing)", "T1 construct": "L2/434/Bu, GFP-expressing", "design": "species or system HeLa; Intracellular C. trachomatis growth in HeLa cells, bulk GFP fluorescence relative to DMSO", "conditions": "bulk GFP, single well; 28.5 h, 10 µM; inhibitor", "units": {"% of control remaining": "%"}}
{"compound": "CCn1cnc2c1CCC(CN/C(=N/C(=O)c1ccccc1)NC)C2", "note": "(stereo not drawn) [CBK010036]", "% of control remaining": 125.033}
{"compound": "CCN(CCn1cccn1)c1nc2nonc2nc1NC1CCCC1", "note": "[CBK307589]", "% of control remaining": 122.325}
{"compound": "OCc1ccc(-n2ncc(-c3ccc(C(F)(F)F)cc3)n2)cc1", "note": "[CBK112696]", "% of control remaining": 133.066}
{"compound": "Cc1nn(C)cc1CN1CCN(CC2(c3ccccc3)CC2)CC1", "note": "[CBK282721]", "% of control remaining": 130.853}
{"compound": "COc1cccc(C2C(C(=O)c3ccc(C)o3)=C(O)C(=O)N2CCN2CCOCC2)c1", "note": "(stereo not drawn) [CBK264899]", "% of control remaining": 123.085}
{"compound": "CN(C(=O)CCn1c(=O)oc2cc(Cl)ccc21)C1(C(N)=O)CCCC1", "note": "[CBK305493]", "% of control remaining": 132.946}
{"compound": "Cc1ccc(C(=O)NCC(O)c2ccc(F)cc2F)cn1", "note": "(stereo not drawn) [CBK297751]", "% of control remaining": 147.45}
{"compound": "O=C(NCCCn1ccnc1)c1ncoc1-c1cccs1", "note": "[CBK282404]", "% of control remaining": 147.818}
{"compound": "O=C(NCc1cccc(C(F)(F)F)c1)N1CCCC(CO)C1", "note": "(stereo not drawn) [CBK156033]", "% of control remaining": 109.322}
{"compound": "CC(OC(=O)c1ccc2c(c1)C(=O)N(c1ccc([N+](=O)[O-])cc1)C2=O)C(=O)c1ccccc1", "note": "(stereo not drawn) [CBK157061]", "% of control remaining": 124.202}
{"compound": "COc1ccccc1-c1nccnc1OCCC(C)C", "note": "[CBK106818]", "% of control remaining": 110.974}
{"compound": "Cc1ccc(C(=O)N2CCC3(CC2)CC(=O)c2cc(Br)ccc2O3)cc1C", "note": "[CBK162264]", "% of control remaining": 140.329}
{"compound": "Cc1nnc(SCC(=O)Nn2c(-c3ccccc3)nc3ccccc3c2=O)[nH]1", "note": "[CBK268841]", "% of control remaining": 109.463}
{"compound": "Cc1ccc(S(=O)(=O)NCC(=O)Nc2ccc(C)cc2C(=O)c2ccccc2)cc1", "note": "[CBK265199]", "% of control remaining": 100}
{"compound": "O=C(COc1ccc2c(c1)OCO2)Nc1ccccn1", "note": "[CBK288148]", "% of control remaining": 112.852}
{"compound": "COCCn1c(SCc2ccc([N+](=O)[O-])cc2)nnc1-c1ccccc1", "note": "[CBK265937]", "% of control remaining": 136.726}
{"compound": "COC(=O)c1ccccc1NC(=O)c1cc2nc(-c3cccs3)cc(C(F)(F)F)n2n1", "note": "[CBK262524]", "% of control remaining": 119.654}
{"compound": "O=C(NC(c1ccccc1)c1cccnc1)C1CCN(C(=O)NC2CCCCC2)CC1", "note": "(stereo not drawn) [CBK060378]", "% of control remaining": 152.86}
{"compound": "CCOC(=O)C1CCCN(Cc2cccc(Cl)c2Cl)C1", "note": "(stereo not drawn) [CBK307056]", "% of control remaining": 121.23}
{"compound": "C(=N\\c1nc2ccccc2n1CCN1CCOCC1)/c1ccc2c(c1)OCO2", "note": "[CBK262270]", "% of control remaining": 101.199}
{"compound": "CNC(=O)Nc1cc(C(O)(C(F)(F)F)C(F)(F)F)ccc1C", "note": "[CBK006970]", "% of control remaining": 95.6753}
{"compound": "Cc1ccc(S(=O)(=O)CC(=O)N2CCC3(CCN(C(=O)Cc4c[nH]c5ccccc45)C3)C2)cc1", "note": "(stereo not drawn) [CBK131443]", "% of control remaining": 129.316}
{"compound": "O=c1cc(Cn2ccnc2)c2cc3c(cc2o1)CCC3", "note": "[CBK287813]", "% of control remaining": 120.576}
{"compound": "C=C(C)CN1CCN(C(C(=O)O)c2c[nH]c3ccc(OCc4ccccc4)cc23)CC1", "note": "(stereo not drawn) [CBK286668]", "% of control remaining": 148.334}
{"compound": "Nc1ncc(-c2cccnc2)nc1-c1ccc(C(=O)N2CCOCC2)cc1", "note": "[CBK064059]", "% of control remaining": 189.824}
{"compound": "CC(=O)N(C)c1nc(-c2ccccc2)ccc1C(=O)NCc1ccco1", "note": "[CBK106334]", "% of control remaining": 109.536}
{"compound": "Fc1ccc(CNc2c(-c3cccs3)nc3cnccn23)cc1", "note": "[CBK283487]", "% of control remaining": 88.1967}
{"compound": "Cn1nc([N+](=O)[O-])nc1OCc1nc2ccccc2n1C", "note": "[CBK265247]", "% of control remaining": 119.502}
{"compound": "COc1cc(-c2nccnc2N[C@@H](CO)C(C)C)cc(OC)c1OC", "note": "[CBK038023]", "% of control remaining": 106.688}
{"compound": "COc1nccnc1N1CCN(Cc2ccccc2)CC1", "note": "[CBK084210]", "% of control remaining": 112.176}
{"compound": "COc1ccc(C)cc1-n1ccc(C(=O)NCC2(C)CCCS2)n1", "note": "(stereo not drawn) [CBK305355]", "% of control remaining": 117.914}
{"compound": "O=C(COc1ccc(Cl)cc1Br)N1CCCCCC1", "note": "[CBK058661]", "% of control remaining": 116.932}
{"compound": "COc1ccc(NC(=O)C(OC)c2ccccc2)cc1Cl", "note": "(stereo not drawn) [CBK264098]", "% of control remaining": 140.656}
{"compound": "Cc1noc(C)c1CCC(=O)N1CC[C@H]2NC(=O)COc3ccccc3C/C=C/C[C@H]2C1", "note": "[CBK292115]", "% of control remaining": 100.49}
{"compound": "O=C1S/C(=C\\c2ccc(O)c([N+](=O)[O-])c2)C(=O)N1Cc1ccc(Cl)cc1", "note": "[CBK102929]", "% of control remaining": 103.032}
{"compound": "Nc1ncc(-c2cccc3cccnc23)nc1NC1CCCCC1", "note": "[CBK063613]", "% of control remaining": 104.489}
{"compound": "O=C(CSCc1ccc([N+](=O)[O-])cc1)Nc1c[nH]c(=O)[nH]c1=O", "note": "[CBK268549]", "% of control remaining": 115.157}
{"compound": "Cc1cccc(NC(=S)NCCc2ccc(S(N)(=O)=O)cc2)c1C", "note": "[CBK264889]", "% of control remaining": 100}
{"compound": "CCOc1cccc(-c2cncc(N[C@H](C)c3ccccc3)n2)c1", "note": "[CBK066042]", "% of control remaining": 100.264}
{"compound": "CC(Oc1ccc(Cl)cc1Cl)C(=O)Nc1sc2c(c1C(N)=O)CCCCCC2", "note": "(stereo not drawn) [CBK265394]", "% of control remaining": 126.478}
{"compound": "CCOC(=O)C1CSCCN1C(=O)c1cnn(-c2ccc(Br)cc2)c1C", "note": "(stereo not drawn) [CBK304550]", "% of control remaining": 99.7081}
{"compound": "Nc1ncc2ncn([C@H]3C[C@@H](O)[C@@H](CO)O3)c2n1", "note": "[CBK201303]", "% of control remaining": 117.602}
{"compound": "O=C(COc1ccc(F)cc1)N1CCCC1c1cccc(Cc2ccccc2)n1", "note": "(stereo not drawn) [CBK286214]", "% of control remaining": 93.9854}
{"compound": "CCN1C(=O)C2(CC(=O)N(CCCCC(C)C)C2=O)c2cc(C)ccc21", "note": "(stereo not drawn) [CBK075173]", "% of control remaining": 110.242}
{"compound": "CS(=O)(=O)c1ccc(-c2nc(N)cc3ccccc23)cc1", "note": "[CBK085724]", "% of control remaining": 121.407}
{"compound": "Cc1cccc(C)c1OCC(=O)Nc1ccccc1C(=O)N1CCOCC1", "note": "[CBK270096]", "% of control remaining": 110.06}
{"compound": "Cc1cc(Cl)ccc1NC(=O)CN1CCN(Cc2ccccc2)CC1", "note": "[CBK269438]", "% of control remaining": 100.761}
{"compound": "Cc1cc(CNC(=O)C2(c3ccccc3)CCCC2)no1", "note": "[CBK149518]", "% of control remaining": 117.682}
{"compound": "O=C(CCCn1ccnc1)NCC1(c2cccc(F)c2)CCCC1", "note": "[CBK281500]", "% of control remaining": 120.9}
{"compound": "Cn1ccnc1C1(O)CC2CCC(C1)N2C(=O)c1ccc(Cl)cc1", "note": "(stereo not drawn) [CBK284087]", "% of control remaining": 110.396}
{"compound": "O=C(O)CCC(=O)NCC1(c2ccccc2)CCCC1", "note": "[CBK286679]", "% of control remaining": 139.203}
{"compound": "Cc1nc2c(c(=O)[nH]1)CC[C@@H]1CN(C(=O)Cc3ccsc3)C[C@H]21", "note": "[CBK284411]", "% of control remaining": 99.5011}
{"compound": "O=C(N/N=C/C=C/c1ccc([N+](=O)[O-])cc1)C(O)c1ccccc1", "note": "(stereo not drawn) [CBK261373]", "% of control remaining": 100}
{"compound": "CC(C)(c1ccccc1)c1ccc(OCCCCn2cncn2)cc1", "note": "[CBK266405]", "% of control remaining": 109.812}
{"compound": "COc1ccc(OCc2nc3ccccc3[nH]2)cc1", "note": "[CBK261030]", "% of control remaining": 101.571}
{"compound": "Cc1cccc(C)c1NC(=O)CN1CCCN(c2cc(OCCN3C(=O)CCC3=O)ncn2)CC1", "note": "[CBK083313T]", "% of control remaining": 138.158}
{"compound": "CC(C)(C)C1=CC2=NC3(CCC3)C3C[C@@H](O)[C@@H](O)[C@]3(COCc3ccccc3)N2O1", "note": "(stereo partly drawn) [CBK303260]", "% of control remaining": 166.377}
{"compound": "CCCC/C=C/c1cnc(N)c(-c2cccc(N)c2)n1", "note": "[CBK063954]", "% of control remaining": 163.948}
{"compound": "CC(C)Nc1nccnc1Sc1cccs1", "note": "[CBK089490]", "% of control remaining": 87.7725}
{"compound": "c1ccc(CN2CC[C@H](c3nc4ncccc4[nH]3)C2)cc1", "note": "[CBK289383]", "% of control remaining": 106.224}
{"compound": "Cc1cc(/C=C2\\NC(=O)NC2=O)c(C)n1-c1ccc(OCc2ccccc2F)cc1", "note": "[CBK264842]", "% of control remaining": 100}
{"compound": "CN(Cc1nc(-c2ccccc2)no1)C(=O)C1CC2(CCNCC2)CN1", "note": "(stereo not drawn) [CBK306585]", "% of control remaining": 101.422}
{"compound": "O=C(O)c1nnn(-c2ccccc2)c1-c1ccncc1", "note": "[CBK288041]", "% of control remaining": 124.148}
{"compound": "CN(C)C(CNC(=O)Nc1cccc(C(=O)NC2CC2)c1)c1cccs1", "note": "(stereo not drawn) [CBK305565]", "% of control remaining": 105.059}
{"compound": "COc1ccc(Cn2nc(-c3nc(C)no3)c3ccccc32)cc1", "note": "[CBK105834]", "% of control remaining": 87.1616}
{"compound": "c1ccc2c(c1)nnn2CNCn1nnc2ccccc21", "note": "[CBK261114]", "% of control remaining": 100}
{"compound": "Cc1c(Cc2ccccc2)c(=O)oc2c(CN3CCCC(C)C3)c(O)ccc12", "note": "(stereo not drawn) [CBK266995]", "% of control remaining": 142.782}
{"compound": "Cc1ccc([C@]2(O)CC[C@H]3CN(Cc4cccc(F)c4F)C[C@H]32)nc1", "note": "[CBK283088]", "% of control remaining": 128.837}
{"compound": "O=C(c1ccccc1)N1C[C@@H](c2ccsc2)[C@@H]2CN(Cc3ccccc3F)CC[C@@H]21", "note": "[CBK285612]", "% of control remaining": 54.4482}
{"compound": "Cc1cc(C(F)F)n2nc(C(=O)Nc3cccc(S(=O)(=O)N4CCOCC4)c3)nc2n1", "note": "[CBK266198]", "% of control remaining": 124.31}
{"compound": "CNC(=O)C1(Cc2ccc(-c3cccc(C)c3)cc2)CCN(C(=O)CC(C)C)CC1", "note": "[CBK285787]", "% of control remaining": 99.96}
{"compound": "CC(=O)Nc1ccc(S(=O)(=O)N2CCN(c3ccc([N+](=O)[O-])c(NC4C5CC6CC(C5)CC4C6)c3)CC2)cc1", "note": "(stereo not drawn) [CBK268802]", "% of control remaining": 140.927}
{"compound": "O=C(O)CCc1ccc(-c2cccs2)n1NC(=O)c1sc2ccccc2c1Cl", "note": "[CBK264782]", "% of control remaining": 113.787}
{"compound": "COc1ccccc1N1CCN(/N=C\\c2ccccc2OCC(=O)O)CC1", "note": "[CBK263173C]", "% of control remaining": 100}
{"compound": "FC(F)(F)c1ccnc(Sc2cccc(Cl)c2)n1", "note": "[CBK115247]", "% of control remaining": 74.7763}
{"compound": "CC(=O)Nc1ccc(-c2ccc(C(=O)N3CCC(Sc4ccccc4)CC3)cn2)cc1", "note": "[CBK160188]", "% of control remaining": 107.942}
{"compound": "CCn1cc(C(=O)N2C[C@H](C(=O)OC)[C@@H](c3ccc(F)cc3)C2)cn1", "note": "[CBK283719]", "% of control remaining": 121.209}
{"compound": "O=C(Cn1c(NCCO)nc2ccccc21)c1ccco1", "note": "[CBK264127B]", "% of control remaining": 117.574}
